# Hit rate of the full screen: of about 59,000 compounds, about 35 (0.06%) were called active. Inconclusive results, whose numbers are uncertain, are shown with a selection of clear calls. No stated cut-off is given here; in the data, active means max dye-equivalent concentration above about 10 nM; inconclusive means between about 1.1 nM and that limit; inactive means weaker than that.
# Experiment: qHTS Assay for Spectroscopic Profiling in Texas Red Spectral Region
# Conditions: Compound fluorescence, Texas Red channel, 547/618 nm; hits give high values
# How it was run: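 Compound titrations in 100 mM Tris pH 8.0 were incubated 15 min at room temperature and read at 547 nm excitation / 618 nm emission. Texas Red six-point standard curve on each plate converted fluorescence to dye-equivalent concentration.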
row,SMILES,max dye-equivalent concentration
1,Cc1cccc(C(=O)NC2CC(C)(C)NC(C)(C)C2)c1,inconclusive: 1.2 nM
2,COc1cc(S(=O)(=O)NCCc2ccc3c(c2)OCO3)ccc1-n1cnnn1,inconclusive: 1.2 nM
3,CCN(CC)COC(=S)S,inactive
4,Cc1ccccc1CN1CCNC1=O,inconclusive: 1.6 nM
5,COc1cc(C(=O)O[C@@H]2CC(C)=CC[C@@]3(C)CC[C@](O)(C(C)C)[C@H]23)ccc1O,inactive
6,Cc1ccc(NC(=O)c2ocnc2C)cc1Cl,inconclusive: 1.4 nM
7,Fc1ccc(Nc2ncnc3ccc(-c4ccoc4)cc23)cc1,inactive
8,Cc1cccc(CS(=O)(=O)Cc2ccc(C(=O)NCc3cccnc3)o2)c1,inconclusive: 1.1 nM
9,CC(=O)[C@H]1[C@H]2[C@H](C(=O)[C@@H]3OC[C@H]2O3)[C@@H]2c3ccccc3C=CN12,inactive
10,CC(=O)Nc1ccc(OC(=O)C(CCS(C)(=O)=O)N2C(=O)c3ccccc3C2=O)cc1 (stereo not given),inconclusive: 1.4 nM
11,COc1cc(OC)c(S(=O)(=O)N2CCCCC2)cc1S(=O)(=O)N1CCCCC1,inconclusive: 1.2 nM
12,Cn1c(SCC(=O)N2CCCc3ccccc32)nnc1-c1cccs1,inactive
13,CC(C)(C)NCC(O)COc1ccccc1C(C)(C)C (stereo not given),inconclusive: 1.4 nM
14,Nc1[nH]c(=S)[nH]c(=O)c1N=Nc1c(Br)cc(S(N)(=O)=O)cc1Br,inactive
15,O=C(CN1CCN(CCC(=O)Nc2ccccc2F)CC1)Nc1ccc(F)cc1,inconclusive: 2 nM
16,Brc1ccc(-c2nc(-c3cccnc3)no2)o1,inconclusive: 2.4 nM
17,CCOC(=O)C(CC)n1cnc2sc3c(c2c1=O)CCC3 (stereo not given),inconclusive: 1.3 nM
18,COc1ccc(-c2nc3cnc(Oc4cccc(Cl)c4)nc3n(CCC#N)c2=O)cc1,inactive
19,CCSc1nnc(NC(=O)CSc2nc3c(c(=O)n2C)SC(C)C3)s1 (stereo not given),inconclusive: 1.1 nM
20,COC(=O)c1c(NC(=O)c2ccc(S(=O)(=O)N3CCOCC3)cc2)sc2c1CCN(C)C2,inconclusive: 2 nM
21,COc1ccc(O)c(C(=O)c2cc(C#N)c(=O)n(-c3c(C)n(C)n(-c4ccccc4)c3=O)c2)c1,inactive
22,COCC(=O)N1CCC2(CC1)CN(Cc1nccs1)C2,inactive

row,SMILES,max dye-equivalent concentration
1,COc1ccc(CNC(=O)c2noc3c2CCCC3)cc1,inconclusive: 1.2 nM
2,CC(C)(C)n1nnnc1C(c1cccnc1)N1CCN(C2CCCCC2)CC1 (stereo not given),inconclusive: 2.6 nM
3,CCOc1ccccc1NC(=O)C1Cc2ccccc2CN1S(C)(=O)=O (stereo not given),inconclusive: 1.3 nM
4,Cc1ccccc1Cn1ccc(NC(=O)c2cc3nc(-c4ccco4)cc(C(F)(F)F)n3n2)n1,inconclusive: 1.1 nM
5,O=C(CSc1n[nH]c(-c2ccc(S(=O)(=O)NC3CCCCC3)cc2)n1)N1CCCC1,inconclusive: 1.7 nM
6,O=C(Cn1cnc2ccccc2c1=O)NCCC(=O)Nc1ccc2c(c1)OCCO2,inconclusive: 1.1 nM
7,COc1ccc(-c2cc(C(N)=O)nc(N3CCCCCC3)n2)cc1,inconclusive: 1.4 nM
8,COc1ccc2[nH]c3c(NCCN(C(C)C)C(C)C)ncnc3c2c1,inconclusive: 1.5 nM
9,CC(=O)NC(Cc1ccccc1)C(=O)NC1CCN(C(=O)c2cnccn2)CC1 (stereo not given),inconclusive: 1.8 nM
10,Cn1nnnc1CCOCCc1nnnn1C,inconclusive: 1.9 nM
11,N#Cc1c(N)sc(=S)c2c1CCN(Cc1ccccc1)C2,inconclusive: 1.8 nM
12,COc1cc(-c2nnc(SCC(=O)c3cc(C)n(CC4CCCO4)c3C)o2)cc(OC)c1OC (stereo not given),inconclusive: 1.1 nM
13,CNCC[C@H](Oc1ccccc1OC)c1ccccc1,inconclusive: 1.3 nM
14,Fc1ccc(C(c2ccc(F)cc2)N2CCN(C/C=C\c3ccccc3)CC2)cc1,inactive
15,COc1ccccc1NC(=O)c1ccccc1NS(=O)(=O)N1CCCC1,inconclusive: 1.9 nM
16,NS(=O)(=O)c1ccc(CCNC(=O)CCC2COc3ccccc3O2)cc1 (stereo not given),inconclusive: 1.2 nM
17,CC1CCCCC1NC(=O)c1cn(C)c2ccc(S(=O)(=O)N3CCCC3)cc2c1=O (stereo not given),inconclusive: 1.4 nM
18,O=C(O)c1ccncc1.O=C(O)c1ccncc1.[NH2-].[NH2-].[Pt],inconclusive: 1.3 nM
19,O=c1cc(N2CCN(Cc3ccccc3)CC2)[nH]c(=O)n1Cc1ccc(F)cc1,inconclusive: 1.3 nM
20,O=C(Nc1ccc2c(c1)OCCO2)c1ccc2nccnc2c1,inconclusive: 1.6 nM
21,O=C(c1csnn1)N1CCC2(CC1)CCN(c1ccccc1)CC2,inactive
22,COc1ccc(N2CCN(C(=O)CSc3nnc(COc4cccc5cccnc45)o3)CC2)cc1,inconclusive: 1.2 nM

row,SMILES,max dye-equivalent concentration
1,O=C(NC1CCCCC1)C1CCCN(S(=O)(=O)c2cccs2)C1 (stereo not given),inconclusive: 1.1 nM
2,COc1cccc(C2C3CN(C)CC=C3C(C#N)=C(N)C2(C#N)C#N)c1OC (stereo not given),inactive
3,Cc1cc(C)c2nc(N3CCCN(C(=O)c4cnccn4)CC3)c(C#N)cc2c1,inconclusive: 1.9 nM
4,COc1cc(OC)c(C2CC(=O)N3CN(c4ccccc4)CSC3=C2C#N)cc1OC (stereo not given),inconclusive: 1.2 nM
5,Cc1csc(NC(=O)c2sc3nc(-c4cccs4)ccc3c2N)n1,inactive
6,Cc1cc2occ(CC(=O)NC3=NCCS3)c2cc1C(C)C,inconclusive: 1.1 nM
7,CC(C)CN1CCCC2(CCN(C(=O)c3ccco3)CC2)C1,inactive
8,C=CCn1c(=O)c2ccccc2n2c(SCC(=O)N3CCCc4ccccc43)nnc12,inconclusive: 1.1 nM
9,CCOC(=O)CC(=O)CSc1nc(C)nc2c1oc1ccccc12,inconclusive: 1.4 nM
10,Cc1noc(C)c1CSCC(=O)OCC(=O)NC1CCCCC1,inconclusive: 1.7 nM
11,CCCn1c(=N)c(C(=O)NCc2ccc3c(c2)OCO3)cc2c(=O)n3cccc(C)c3nc21,inactive
12,CN(C(=O)c1cccc(C#N)c1)c1nnc(C2CCOC2)s1 (stereo not given),inconclusive: 1.3 nM
13,Cc1cc(C)nc(N2CCCC(C(=O)NCCc3cccc(F)c3)C2)n1 (stereo not given),inconclusive: 1.5 nM
14,CCC(=O)N1CCc2cc(S(=O)(=O)CCC(=O)NCCc3ccc(OC)c(OC)c3)ccc21,inconclusive: 1.1 nM
15,O=C(Nc1nncs1)C1c2ccccc2Oc2ccccc21,inconclusive: 1.1 nM
16,O=C(OCCCN1C(=O)c2ccccc2C1=O)c1ccco1,inconclusive: 2.2 nM
17,C=CCn1c(=O)c(C(=O)Nc2nnc(C)s2)c(O)c2ccccc21,inconclusive: 1.1 nM
18,Cc1ccc(CN(CC(=O)NCCc2ccccc2)C(=O)CCCC(=O)Nc2cc(C)on2)cc1,inconclusive: 1.6 nM
19,O=C(Nc1ccc(S(=O)(=O)NC2CCCC2)cc1)c1cnccn1,inconclusive: 1.4 nM
20,CCCN1/C(=C(/C#N)C2=NS(=O)(=O)c3ccccc32)N(C)c2ccccc21,inconclusive: 1.5 nM
21,Cc1ccc(C(=O)C2=C(O)C(=O)N(CCCN3CCOCC3)C23C(=O)N(C)c2ccccc23)o1 (stereo not given),inconclusive: 1.5 nM
22,O=C(CN(C(=O)Cn1nnc(-c2cccs2)n1)c1cnc2ccccc2c1)NCC1CCCO1 (stereo not given),inconclusive: 1.1 nM

# Three entries from above, set out differently.
row	SMILES	max dye-equivalent concentration
10	CC(=O)Nc1ccc(OC(=O)C(CCS(C)(=O)=O)N2C(=O)c3ccccc3C2=O)cc1 (stereo not given)	inconclusive: 1.4 nM
11	COc1cc(OC)c(S(=O)(=O)N2CCCCC2)cc1S(=O)(=O)N1CCCCC1	inconclusive: 1.2 nM
12	Cn1c(SCC(=O)N2CCCc3ccccc32)nnc1-c1cccs1	inactive

# Later entries

row,SMILES,max dye-equivalent concentration
1,COC(=O)c1ccc(Oc2cc(C)nc(NCc3ccccc3)n2)cc1,inconclusive: 1.5 nM
2,c1ccc2c(c1)OCC(c1nnc3sc(-c4ccc5c(c4)OCO5)nn13)O2 (stereo not given),inconclusive: 1.3 nM
3,O=C(Cc1cccs1)OCC(=O)c1ccco1,inconclusive: 1.7 nM
4,O=C(NCc1ccco1)c1ccc(CS(=O)(=O)Cc2ccc(Cl)cc2)o1,inconclusive: 1.3 nM
5,CC[C@@H](C)[C@H](NC(=O)C1CCN(C(=O)[C@@H](NS(=O)(=O)c2ccc(C)cc2)C(C)C)CC1)C(=O)O,inconclusive: 1.2 nM
6,COC(=O)Cn1cnc2c(C#N)c3n(c2c1=O)CCCCC3,inconclusive: 1.1 nM
7,CCC(NS(=O)(=O)c1ccc(OC)cc1)C(=O)O (stereo not given),inconclusive: 1.3 nM
8,COc1ccc(NC(=O)CSc2nc3sc(C)c(C)c3c(=O)n2Cc2ccco2)cc1,inconclusive: 1.1 nM
9,CC(C)(C)NC(=O)CN(C(=O)CS(=O)CC(=O)Nc1ccc(F)cc1)c1ccccc1 (stereo not given),inconclusive: 1.9 nM
10,CC(C)(C)n1nnnc1C(c1cccs1)N1CCCc2ccccc21 (stereo not given),inconclusive: 1.9 nM
11,COC(=O)[C@H](CCSC)NC(=O)N1CCN(c2cccc(C(F)(F)F)c2)CC1,inconclusive: 1.2 nM
12,CCOC(=O)N1CCN(Cc2nc3c(c(=O)n(C)c(=O)n3C)n2CCCc2ccccc2)CC1,inconclusive: 2.9 nM
13,CCOC(=O)Cc1csc(NC(=O)CSc2nnc(C3CC3)n2C)n1,inconclusive: 1.3 nM
14,CC(=O)N(c1ccc2oc(=O)sc2c1)S(=O)(=O)c1ccccc1,inconclusive: 1.4 nM
15,O=C(CN1C(=O)c2ccccc2C1=O)N1CCN(c2ccccn2)CC1,inconclusive: 1.2 nM
16,Cc1nc(N)[nH]c(=O)c1CCC(=O)OCC(C)C,inconclusive: 1.1 nM
17,C=CCn1c(=O)/c(=C/c2ccc(C)o2)s/c1=C(/C#N)C(=O)c1ccccc1,inactive
18,O=C(Nc1ccccc1)c1ccc(S(=O)(=O)N2CCCC2)cc1,inconclusive: 1.3 nM
19,CC1S/C(=C(\C#N)C(N)=O)N(c2ccc(F)cc2)C1=O (stereo not given),inconclusive: 2.3 nM

# — PubChem BioAssay AID587 (National Center for Advancing Translational Sciences (NCATS), 2007)
